Data published in PubChem BioAssay AID504467 (National Center for Advancing Translational Sciences (NCATS), 2011).
Out of some 330,000 compounds screened, about 7,700 (2.3%) were called active. This list was built around the results that the source calls inconclusive (neither active nor inactive); the mix of calls is not that of the screen. Calls follow the shape of the dose curve; as a rule, active = well fitted inhibition curve with a large enough effect; inconclusive = small, poorly fitted or top-dose-only effect, or effect the other way; inactive = flat fitted curve, though single readings scatter. A potency beside an inconclusive call is a rough fit, not a confirmed value.
% is scaled to controls: 0 for no effect and ±100 for the full control effect; potency is read from the fitted curve at half-maximal effect.

Experiment: qHTS screen for small molecules that inhibit ELG1-dependent DNA repair in human embryonic kidney (HEK293T) cells expressing luciferase-tagged ELG1; also: nearly all actives have a fitted effect of over 55% in size
Details: HEK293T ELG1-luciferase reporter, luminescence, 16 h, DNA damage induced by 5-fluorouridine; activity change, negative = inhibition: at 46.1 µM (top of the series)
Outline: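 5-Fluorouridine DNA damage + compound/DMSO, 2,000 cells/well, 16 h, 37 °C/5% CO2. ONE-Glo, 30 min RT, luminescence. Readout = decrease in reporter signal.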
In the case of CCN(CC)CCCN(Cc1cc2cc(OC)c(OC)cc2[nH]c1=O)C(=O)Nc1ccccc1, the Potency is reported as inconclusive: 18.4 µM [activator, partial curve, poor fit].
For Cc1nnsc1S(=O)c1ccc(Cl)c(Cl)c1 (stereo not given), the “activity change, negative = inhibition” value was inactive: -15.1%.
In the case of Cc1[nH]c2ccccc2c1C(=O)/C=C/c1ccccc1Cl, the Potency is reported as inconclusive: 5.8 µM [activator, full curve].
For CCOc1ccccc1NC(=O)CSc1nnc(NC(=O)c2ccco2)s1, the Potency was inconclusive: 8.2 µM [activator, partial curve, poor fit].
With O=C(O)c1cccc(-c2nnn(Cc3ccccc3Cl)n2)c1 the Potency was inconclusive: 0.651 µM [activator, full curve].
In the case of O=C(CCCn1c(SCC(=O)Nc2ccccc2Cl)nc2ccccc2c1=O)NCC1CCCO1 (stereo not given), the Potency is reported as inconclusive: 29.1 µM [inhibitor, single point].
In the case of C/C(=N\NC(=S)NCCc1ccccc1)c1ccc(Cl)cc1Cl, the “activity change, negative = inhibition” value is reported as inactive: -0.129%.
In the case of N#Cc1c(-c2ccccc2Cl)c2c([nH]c1=O)-c1ccccc1OC2, the “activity change, negative = inhibition” value is reported as inactive: -7.26%.
In the case of COc1ccccc1/C=C1\SC(=S)N(CCC(=O)NNC(=O)c2ccccc2OC)C1=O, the “activity change, negative = inhibition” value is reported as inactive: 1.05%.
In the case of COc1ccc(C2CC(c3ccc(C)o3)=NN2C(C)=O)cc1 (stereo not given), the Potency is reported as inconclusive: 18.4 µM [activator, partial curve].
For C/C(CC(=O)NC(C)(C)C)=N\NC(N)=S, the “activity change, negative = inhibition” value was inactive: 10.8%.
With C[C@@]12C(=O)Nc3cc(Cl)ccc3C(=O)N1[C@H]1c3cc(Cl)ccc3OC[C@@H]1[C@@H]2c1ccccc1 the “activity change, negative = inhibition” value was inactive: 0.798%.
With c1ccc(-c2oc3ncnc(NCCCn4ccnc4)c3c2-c2ccccc2)cc1 the Potency was inconclusive: 29.1 µM [inhibitor, single point].
In the case of CCOC(=O)c1c(C)[nH]c(C2=NNC(=Nc3ccc(OCC)cc3)SC2)c1C, the Potency is reported as inconclusive: 18.4 µM [inhibitor, single point].
In the case of CC(C)OC(=O)c1cc2c(ccn2C)n1CC(=O)N(Cc1ccccc1)c1ccccc1, the “activity change, negative = inhibition” value is reported as inactive: 0.355%.
For COc1ccc(S(=O)(=O)N(CC(=O)Nc2cc(C)on2)Cc2ccccc2)cc1, the Potency was inconclusive: 29.1 µM [inhibitor, single point].
In the case of COc1ccc2cc(C(=O)c3ccccc3)c(=O)oc2c1, the Potency is reported as inconclusive: 18.4 µM [activator, partial curve].
For O=C(NC1CCCC1)C(c1ccsc1)N(Cc1ccco1)C(=O)Cc1cccs1 (stereo not given), the Potency was inconclusive: 23.1 µM [inhibitor, single point].
With O=C(CN1C(=O)COc2ccc(Cl)cc21)Nc1nccs1 the “activity change, negative = inhibition” value was inactive: 9.96%.
In the case of COc1ccccc1N1CCN(c2ccc3cc(S(=O)(=O)N4CCCCC4)ccc3n2)CC1, the “activity change, negative = inhibition” value is reported as inactive: -15.6%.
